Values as published with doi:10.1371/journal.pone.0140310, rounded.

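Human melanoma cells were exposed to a pair of drugs for 72 h in 1,536-well plates and read by automated microscopy after fixing and staining. Each value is the cleaved-PARP-positive fraction of nuclei relative to DMSO-treated wells, in %, so that 100 equals the control and higher values mean more apoptosis. Every drug was used at one fixed concentration, the higher of two screened. No replicate spread is given; individual values may be noisy. Basal and induced levels differ widely between cell lines.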
Only some of the drugs and lines screened are listed, without regard to their results.

Drug key:
MK-1775, 0.1 µM: C=CCn1c(=O)c2cnc(Nc3ccc(N4CCN(C)CC4)cc3)nc2n1-c1cccc(C(C)(C)O)n1
bortezomib, 0.005 µM: CC(C)C[C@H](NC(=O)[C@H](Cc1ccccc1)NC(=O)c1cnccn1)B(O)O
SNS-032, 0.05 µM: CC(C)(C)c1cnc(CSc2cnc(NC(=O)C3CCNCC3)s2)o1
GSK650394, 0.8 µM: O=C(O)c1ccc(-c2c[nH]c3ncc(-c4ccccc4)cc23)cc1C1CCCC1
nilotinib, 1 µM: Cc1cn(-c2cc(NC(=O)c3ccc(C)c(Nc4nccc(-c5cccnc5)n4)c3)cc(C(F)(F)F)c2)cn1
vismodegib, 5 µM: CS(=O)(=O)c1ccc(C(=O)Nc2ccc(Cl)c(-c3ccccn3)c2)c(Cl)c1
PF-562271, 0.4 µM: CN(c1ncccc1CNc1nc(Nc2ccc3c(c2)CC(=O)N3)ncc1C(F)(F)F)S(C)(=O)=O
temozolomide, 10 µM: Cn1nnc2c(C(N)=O)ncn2c1=O

Drugs: nilotinib + MK-1775
A2058: 186
WM1745: 1810

Drugs: PF-562271 + SNS-032
A2058: 170
WM1745: 334

Drugs: bortezomib + nilotinib
A2058: 1980
WM1745: 743

Drugs: vismodegib + temozolomide
A2058: 455
WM1745: 69.8

Drugs: SNS-032 + vismodegib
A2058: 120
WM1745: 98.6

Drugs: bortezomib + PF-562271
A2058: 2400
WM1745: 423

Drugs: GSK650394 + MK-1775
A2058: 173
WM1745: 105

Drugs: bortezomib + vismodegib
A2058: 1110
WM1745: 521

Drugs: vismodegib + GSK650394
A2058: 72.8
WM1745: 100

Drugs: SNS-032 + nilotinib
A2058: 116
WM1745: 86.2

Drugs: bortezomib + SNS-032
A2058: 1190
WM1745: 460

Drugs: PF-562271 + MK-1775
A2058: 151
WM1745: 174

Drugs: PF-562271 + vismodegib
A2058: 154
WM1745: 135

Drugs: MK-1775 + vismodegib
A2058: 173
WM1745: 139

Drugs: SNS-032 + MK-1775
A2058: 185
WM1745: 269

Drugs: SNS-032 + temozolomide
A2058: 268
WM1745: 106

Drugs: PF-562271 + nilotinib
A2058: 199
WM1745: 139

Drugs: nilotinib + vismodegib
A2058: 64.1
WM1745: 93.6

Drugs: GSK650394 + SNS-032
A2058: 85.1
WM1745: 92.0

Drugs: GSK650394 + bortezomib
A2058: 1630
WM1745: 228

Drugs: temozolomide + nilotinib
A2058: 544
WM1745: 129

Drugs: GSK650394 + temozolomide
A2058: 386
WM1745: 114

The last 2 entries again:

Drugs,A2058,WM1745
temozolomide + nilotinib,544,129
GSK650394 + temozolomide,386,114